Test results as given in PubChem BioAssay AID624291 (National Center for Advancing Translational Sciences (NCATS), 2012).
Hit rate of the full screen: of about 350,000 compounds, about 220 (0.063%) were called active. Inconclusive results, whose numbers are uncertain, are shown with a selection of clear calls. Calls come from the whole dose curve; as a rule, active = well fitted activation curve with a large enough effect; inconclusive = small, poorly fitted or top-dose-only effect; inactive = no such curve, though single readings can be large or run the other way. Potencies of inconclusive entries are doubtful fits and often do not repeat.

test: qHTS for Activators of Integrin-Mediated Alleviation for Muscular Dystrophy; conditions: alpha7betagal myoblasts, beta-gal FDG fluorescence, 48 h; activation: at 38.3 µM (top of the series); note: nearly all actives have a fitted effect of over 60% in size;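 for activation: 100% = response of the positive control SU9516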
Outline: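 alpha7betagal+/- myoblasts (passage 13, 250/well) treated 48 h at 37C with compounds at 1:260 dilution of DMSO stock. Lysed, then beta-galactosidase activity read as FDG fluorescence (ex 480/em 540) after 30 min, with pre-read for autofluorescence.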
Potency is the fitted concentration of half-maximal effect.

Q: Which Potency does the source give for `CCCCN1C[C@H](CO)Oc2cccc(F)c2S1(=O)=O` here?
A: inactive

Q: With `Cc1nn(C)c(C(=O)N/N=C/c2cc3c(cc2Br)OCO3)c1Br` as the compound, how does the Potency read?
A: inconclusive: 2.82 µM [activator, partial curve, poor fit]

Q: With `NC(=O)c1c(NC(=O)COC(=O)c2ccc(O)c(Cl)c2)sc2c1CCCC2` as the compound, how does the activation read?
A: inconclusive: 59.8% [activator]

Q: With `Cc1sc(N/N=C/C=C/c2ccccc2)nc1-c1ccccc1` as the compound, how does the Potency read?
A: inactive

Q: For `CC(C)(C)c1ccc(-c2nnc(NC(=O)c3ccccc3)s2)cc1`, which Potency is on record?
A: inactive

Q: Which Potency does the source give for `O=C(NC(c1ccccc1)c1ccccc1)c1ccccc1` here?
A: inconclusive: 2.82 µM [activator, partial curve, poor fit]

Q: With `CCOC(=O)N1CCN(C(=O)CSc2ccc3nnc(-c4ccccn4)n3n2)CC1` as the compound, how does the Potency read?
A: inconclusive: 11.2 µM [activator, single point]

Q: For `CCOc1ccc(C(C)=O)cc1COc1ccc(-c2nnco2)cc1`, which Potency is on record?
A: inconclusive: 3.55 µM [activator, single point]

Q: For `O=C(Nc1cn(-c2ccccc2)nc1-c1ccc(F)cc1)c1ccccc1`, which Potency is on record?
A: inconclusive: 5.01 µM [activator, single point]

Q: For `CC1CCN(Cc2c(C(=O)N/N=C/c3ccc(C(C)C)cc3)nnn2-c2nonc2N)CC1`, which Potency is on record?
A: inconclusive: 3.55 µM [activator, single point]

Q: With `CC(C)(C)NC(=O)NC(=O)CN1CCN(Cc2ccccc2)CC1` as the compound, how does the Potency read?
A: inconclusive: 12.6 µM [activator, partial curve]

Q: With `Cc1ccc(-c2nc(-c3ccncc3)no2)cc1` as the compound, how does the Potency read?
A: inconclusive: 0.794 µM [activator, single point]

Q: Which Potency does the source give for `CC(=O)C1C(c2ccc(C)cc2)c2c(noc2C)CC1(C)O` (centres undefined) here?
A: inconclusive: 22.4 µM [activator, single point]

Q: Which Potency does the source give for `Cc1ccc(S(=O)(=O)N2CCCC2C(=O)Nc2nc3c(s2)CCCC3)cc1` (centres undefined) here?
A: inactive

Q: Which Potency does the source give for `O=c1c2cccc3c2c(nn1CN1CCOCC1)-c1ccccc1-3` here?
A: inactive

Q: For `COc1ccc(-c2csc(NC(=S)NC(=O)c3ccco3)n2)cc1`, which Potency is on record?
A: inactive

Q: With `CCCc1cc(=O)n2[nH]c(-c3ccc(Cl)cc3)cc2n1` as the compound, how does the Potency read?
A: inconclusive: 5.01 µM [activator, single point]

Q: Which Potency does the source give for `CCn1c(CNC(=O)c2ccccc2F)nnc1SCCOc1ccccc1` here?
A: inconclusive: 3.55 µM [activator, single point]

Q: Which Potency does the source give for `COc1cccc(/C=C2/C(=O)NN(c3ccc(Br)cc3)C2=O)c1O` here?
A: inconclusive: 28.2 µM [activator, single point]

Q: Which Potency does the source give for `Cc1ccc(C(C)C)c(OCC(=O)N/N=C/c2ccc(S(=O)(=O)O)o2)c1` here?
A: inconclusive: 12.6 µM [activator, single point]

Q: For `CCOc1ccccc1NC(=O)C(CC)Sc1nc2ccsc2c(=O)n1CCC(=O)O` (centres undefined), which Potency is on record?
A: inconclusive: 2 µM [activator, full curve, poor fit]

Q: Which Potency does the source give for `FC(F)Sc1ccc(NC(=S)NCC2CCCCC2)cc1` here?
A: inactive

Q: For `CN(C)c1nc2ccccc2n(C)c1=O`, which Potency is on record?
A: inconclusive: 5.01 µM [activator, single point]

Q: For `O=C1C2C3C=CC(C2C(=O)N1CCO)C1C(=O)N(CCO)C(=O)C31` (centres undefined), which Potency is on record?
A: inconclusive: 0.447 µM [activator, full curve, poor fit]

Q: For `Cc1c(NC(=S)N/N=C/c2ccc([N+](=O)[O-])cc2O)c(=O)n(-c2ccccc2)n1C`, which Potency is on record?
A: inconclusive: 10 µM [activator, single point]

Q: For `O=C(c1ccco1)c1nc2c(n1O)CCCCC2`, which Potency is on record?
A: inactive

Q: For `CCCC1CC(C)(/C(C)=N\NC(N)=S)OC1=O` (centres undefined), which Potency is on record?
A: inconclusive: 28.2 µM [activator, single point]

Q: For `Cc1ccc(C)c(N2CCN(C(=O)CN3C(=S)NC(C)(C)CC3C)CC2)c1` (centres undefined), which Potency is on record?
A: inactive

Q: With `CC(C)CN(CC(C)C)C(=O)Nc1ccccc1F` as the compound, how does the Potency read?
A: inconclusive: 5.01 µM [activator, single point]

Q: For `Cc1nc(NC(=O)c2ccccc2)sc1C`, which Potency is on record?
A: inconclusive: 1.12 µM [activator, full curve, poor fit]

Q: With `Cc1cccnc1Nc1nc(-c2ccccc2)cs1` as the compound, how does the Potency read?
A: inactive

Q: With `c1ccc(-c2noc(CN3CCCC(OCc4ccccn4)C3)n2)cc1` (centres undefined) as the compound, how does the Potency read?
A: inconclusive: 11.2 µM [activator, partial curve]

Q: For `CC1CCN(CCCNC(=O)c2cc3sccc3n2C)CC1`, which activation is on record?
A: inactive: -2.65% [at 7.66 µM]

Q: For `Cc1ccccc1N1C(=O)CC(Sc2nnc(-c3ccccc3)o2)C1=O` (centres undefined), which Potency is on record?
A: inactive

Q: With `O=C(O)c1ccccc1-c1ccccc1C(=O)Nc1cccc(-c2nc3ccccc3o2)c1` as the compound, how does the Potency read?
A: inconclusive: 1.78 µM [activator, partial curve, poor fit]

Q: With `C/C(=N/NC(=O)c1cc(C2CC2)[nH]n1)c1cccs1` as the compound, how does the Potency read?
A: inconclusive: 0.501 µM [activator, full curve, poor fit]

Q: Which Potency does the source give for `O=C(NCc1nc2ccccc2[nH]1)C1=C[C@@H](c2ccc(C(F)(F)F)cc2)C[C@@H](OCc2ccc(CO)cc2)O1` here?
A: inactive

Q: With `CCC(=O)c1c[nH]c(C(=O)N2CCOCC2)c1` as the compound, how does the Potency read?
A: inconclusive: 7.08 µM [activator, partial curve, poor fit]

Q: For `CN(c1ccc(C(=O)N2CCN(c3ccccc3F)CC2)cc1)S(=O)(=O)c1ccccc1`, which Potency is on record?
A: inconclusive: 28.2 µM [activator, partial curve, poor fit]

Q: Which Potency does the source give for `O=S1(=O)[C@H]2C[C@@H]3CC[C@]2(CN1Cc1cccc(F)c1)O3` here?
A: inconclusive: 3.55 µM [activator, full curve, poor fit]

Q: Which Potency does the source give for `O=S(=O)(c1c(F)cccc1F)N1CCN(Cc2c(O)ccc3ccccc23)CC1` here?
A: inactive

Q: For `COc1ccc(NC(=O)CCCNC(=O)c2ccc(Cl)cc2)cc1S(=O)(=O)N1CCOCC1`, which Potency is on record?
A: inactive

Q: With `O=C(OCc1cc([N+](=O)[O-])cc2c1OCOC2)c1ccccn1` as the compound, how does the Potency read?
A: inconclusive: 5.62 µM [activator, partial curve, poor fit]

Q: For `CC(C)N1CC(C(=O)Nc2cccc([N+](=O)[O-])c2)CC1=O` (centres undefined), which Potency is on record?
A: inconclusive: 3.55 µM [activator, partial curve, poor fit]

Q: With `COc1ccc(C(=O)C(CN2CCCC2)c2ccccc2)cc1` (centres undefined) as the compound, how does the Potency read?
A: inactive

Q: For `Cc1n[nH]c(C)c1S(=O)(=O)N1CCc2ccccc2C1`, which Potency is on record?
A: inconclusive: 0.501 µM [activator, full curve, poor fit]

Q: Which Potency does the source give for `COc1cc(OC)cc(-c2cc3nc(C)c(CCC(=O)O)c(C)n3n2)c1` here?
A: inactive

Q: For `CCC(=O)Nc1ccc(OCC2CCCO2)cc1` (centres undefined), which Potency is on record?
A: inconclusive: 1.58 µM [activator, partial curve, poor fit]

Q: For `Cc1cc(C)c(NS(=O)(=O)c2ccc(NC(=O)c3cccs3)cc2)c(C)c1`, which Potency is on record?
A: inactive

Q: Which Potency does the source give for `CCn1ncc(CN2CCN(Cc3ccc(OC)c(C)c3C)C(CCO)C2)c1C` (centres undefined) here?
A: inconclusive: 5.01 µM [activator, single point]

Q: For `CC(C)(CO)NC(=O)C12CC3CC(CC(Br)(C3)C1)C2`, which Potency is on record?
A: inactive

Q: With `Cc1ccc(NCC(=O)NNC2=NCCC2)c(C)c1` as the compound, how does the Potency read?
A: inconclusive: 2 µM [activator, partial curve, poor fit]

Q: With `COc1cccc(S(=O)(=O)N(C)C[C@@H]2Oc3cc(Br)ccc3S(=O)(=O)N([C@@H](C)CO)C[C@@H]2C)c1` as the compound, how does the Potency read?
A: inactive

Q: With `O=C(Nc1ccccc1)N1CCSc2ccccc21` as the compound, how does the Potency read?
A: inconclusive: 5.01 µM [activator, single point]

Q: With `CC(NC(=O)COc1ccccc1Cl)c1ccccc1` (centres undefined) as the compound, how does the Potency read?
A: inconclusive: 4.47 µM [activator, single point]

Q: With `COc1cc(/C=C/C(=O)Nc2cccnc2)cc(OC)c1OC` as the compound, how does the Potency read?
A: inconclusive: 28.2 µM [activator, single point]

Q: With `CCOC(=O)Cc1csc(NC(=S)NC(=O)c2ccccc2)n1` as the compound, how does the Potency read?
A: inactive

Q: For `O=C(CC1C(=O)NCCN1Cc1ccccc1C(F)(F)F)NCCn1cccn1` (centres undefined), which Potency is on record?
A: inconclusive: 31.6 µM [activator, partial curve, poor fit]

Q: With `COc1ccccc1CCn1c(N)cc(=O)[nH]c1=O` as the compound, how does the Potency read?
A: inconclusive: 1.58 µM [activator, partial curve, poor fit]

Q: Which Potency does the source give for `CC(C)(C)NC(=O)CSc1nnc(SCC(=O)NC(C)(C)C)s1` here?
A: inconclusive: 1.78 µM [activator, full curve, poor fit]

Q: For `O=C(COC(=O)c1cncc(Br)c1)Nc1ccc(N2CCCCC2)cc1`, which Potency is on record?
A: inconclusive: 2 µM [activator, partial curve, poor fit]

Q: For `COc1cc(NC(=O)c2ccc3c(c2)OCO3)ccc1NC(=O)c1cccs1`, which Potency is on record?
A: inconclusive: 3.55 µM [activator, full curve, poor fit]

Q: For `NNC(=O)c1oc2nc(-c3ccco3)cc(-c3ccco3)c2c1N`, which Potency is on record?
A: inactive

Q: With `COC(=O)c1cccc(C(=O)N2CCC(CO)(Cc3ccccc3Cl)CC2)c1` as the compound, how does the Potency read?
A: inconclusive: 28.2 µM [activator, single point]

Q: With `CSc1ncccc1C(=O)Nc1ccc(C)cn1` as the compound, how does the Potency read?
A: inconclusive: 3.55 µM [activator, partial curve, poor fit]

Q: For `CCN(CC)c1ccc(S(=O)(=O)N2CCCCC2)cc1NC(=O)C1CSC2(C)CCC(=O)N12` (centres undefined), which Potency is on record?
A: inconclusive: 2.82 µM [activator, single point]

Q: Which Potency does the source give for `NS(=O)(=O)c1ccc(CCNC(=O)c2ccc(Cn3c(=O)[nH]c4ccccc4c3=O)cc2)cc1` here?
A: inconclusive: 1.78 µM [activator, partial curve, poor fit]

Q: For `COc1ccc(C(CNC(=O)c2cc3ccccc3o2)N2CCCCC2)cc1` (centres undefined), which Potency is on record?
A: inactive

Q: Which Potency does the source give for `Cc1cccc(-c2noc(CCC(=O)Nc3ccc(C(N)=O)cc3)n2)c1` here?
A: inconclusive: 7.94 µM [activator, partial curve, poor fit]
